This is an account of results in publication PMC7819943, “Rice protein-binding microarrays: a tool to detect cis-acting elements near promoter regions in rice”.

Chains of the proteins cited; added tags and fusions are not shown.
UniProt Q0JBA9, entry or part of it: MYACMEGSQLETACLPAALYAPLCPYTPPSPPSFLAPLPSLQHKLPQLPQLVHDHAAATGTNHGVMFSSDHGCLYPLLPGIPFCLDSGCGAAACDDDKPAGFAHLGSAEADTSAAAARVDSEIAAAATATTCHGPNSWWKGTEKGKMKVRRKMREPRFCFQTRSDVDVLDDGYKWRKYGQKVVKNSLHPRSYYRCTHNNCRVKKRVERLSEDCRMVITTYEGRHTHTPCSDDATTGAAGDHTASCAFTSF

Some of the results follow.

The test has as its target OsWRKY34 (Oryza sativa, UniProt Q0JBA9 1-250). Nature of the test: protein-binding microarray (RPBM); PBS, 2% BSA, 51.3 ng/ul salmon testes DNA, 50 uM zinc acetate, 200 nM TF, 25 C, 1 h; high values mean tight binding. To be noted: protein: recombinant; tags: N-terminal polyhistidine and DsRed monomer fusion (pET32a); label: CyDye5-dUTP incorporated in the synthesized complementary strand; 3' TTTTT single-stranded linker to array surface; dsDNA, one strand shown. A digest of the protocol:
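A custom Agilent array was converted to double-stranded form by primer extension with Cy5-dUTP and blocked with 2% BSA. Protein at 200 nM in PBS with 2% BSA, salmon testes DNA and 50 µM zinc acetate was applied for 1 h at 25 °C, followed by washing. The proteins were polyhistidine–DsRed N-terminal fusions of transcription factors, expressed in E. coli BL21-CodonPlus and Ni–NTA-purified. The binding signal is per-feature fluorescence intensity (arbitrary units) from an Axon 4000B scanner.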
In the case of “TGTATTAGGGAGTGTGAATGTAGTATTTCATTTCCGTCTACGGAGTCACCTAGTGCAG”, the binding signal was 8080 fluorescence intensity (a.u.).

As to “GACATGTGTGTCCCACTTTTTAAAATCTTTTTTCCTGATTCGGAGTCACCTAGTGCAG”, the binding signal was 8580 fluorescence intensity (a.u.).

“CACCTATCATACACACGTTACGTCTTAGAGTCCATGCTGCCGGAGTCACCTAGTGCAG”: the binding signal is 10800 fluorescence intensity (a.u.).

Regarding “ATTTTTCTTCAAACTTTCAACTTTTTCATCGTATCCAAACCGGAGTCACCTAGTGCAG”, the binding signal was 8740 fluorescence intensity (a.u.).

For “TCACTGGTAACCAGCCTTTTTACGCCCTTTACCTCGTCGACGGAGTCACCTAGTGCAG”, the binding signal was 8110 fluorescence intensity (a.u.).

Consider “GGTGCGGCGGTGGGCGGCATGGAGATGGGGAGAGGAGGCGCGGAGTCACCTAGTGCAG”, for which the binding signal is 10600 fluorescence intensity (a.u.).

As for “TGTGTCATCTTTACTACCGTTCCTCTCTCTATCCTCTCTCCGGAGTCACCTAGTGCAG”, the binding signal was 8970 fluorescence intensity (a.u.).

For the sequence “CTTAGTGGTGGGTATAATATCTCGTCAGCTTCGCGCAAGCCGGAGTCACCTAGTGCAG”, the binding signal is 11300 fluorescence intensity (a.u.).

As to “GCGGCGGTGGTTAGGGTTTGGGGCTCGTCGGCGTCGGCGACGGAGTCACCTAGTGCAG”, the binding signal is 10900 fluorescence intensity (a.u.).

As for “TCTCTCGCGCGCGCACCTTGCCGCCGCCCGCCATCGCCAACGGAGTCACCTAGTGCAG”, the binding signal was 13900 fluorescence intensity (a.u.).

“GAACCCTTCGGCAATAAATACGGCGTCCCATCAAAATCGACGGAGTCACCTAGTGCAG”: the binding signal is 8050 fluorescence intensity (a.u.).

“TTTCTATATGGACTCTGTTTTTTCTTTTTCTCCGATTAATCGGAGTCACCTAGTGCAG”: the binding signal is 8350 fluorescence intensity (a.u.).

For “TCACTGACGTCCGGCCCCACGCGGCTGTCCCCACCGCCCCCGGAGTCACCTAGTGCAG”, the binding signal was 10500 fluorescence intensity (a.u.).

On to “ACCGCTACGCCAACCACAACCGCGTCTTCTTCGACTGCACCGGAGTCACCTAGTGCAG”, for which the binding signal was 9710 fluorescence intensity (a.u.).

On to “GTACCTGCTCTAATTTGTTTTGTTATTAGTCTACGTTTAACGGAGTCACCTAGTGCAG”, for which the binding signal was 8580 fluorescence intensity (a.u.).

As for “ATCGGGGCGTCACTCATCACCATCCGCGAGCACTTTGACTCGGAGTCACCTAGTGCAG”, the binding signal is 8420 fluorescence intensity (a.u.).

With “CCTCTAAATTTTAAGATTTTTTTAATCATTTTACCATTTTCGGAGTCACCTAGTGCAG”, the binding signal is 65200 fluorescence intensity (a.u.).

For “AAGTGGATGGTGGTGGTGGTGGGGCATCGGAGACATACAGCGGAGTCACCTAGTGCAG”, the binding signal is 9280 fluorescence intensity (a.u.).

With “CACACACACACTCACACTCACACACGCTCTCAACTCACTCCGGAGTCACCTAGTGCAG”, the binding signal was 12400 fluorescence intensity (a.u.).

For “ATCCGATCTCTCTTCTCATTCTCTTCTCTTGGTTTGGGGTCGGAGTCACCTAGTGCAG”, the binding signal was 8220 fluorescence intensity (a.u.).

Regarding “TTGGGTTGGTTGCTCTCCTCCTCTCTTCTCTTTGTGGTCGCGGAGTCACCTAGTGCAG”, the binding signal is 8580 fluorescence intensity (a.u.).

“GAGCTCCACCCACCGCAACTACCTTTTTGACCCCTCACTCCGGAGTCACCTAGTGCAG”: the binding signal was 8670 fluorescence intensity (a.u.).

Regarding “CTTTCTTTTTTTTCCCCTTTTCTTTTCTGACAGCCACTGTCGGAGTCACCTAGTGCAG”, the binding signal was 9950 fluorescence intensity (a.u.).

Take “GTTGCATGTGGATTTTGCTGAACTTTGGTCTTCTCAACTTCGGAGTCACCTAGTGCAG”: the binding signal was 13700 fluorescence intensity (a.u.).

For the sequence “CGTCTATCCCTTTTTTTTTATACAATTAGGTGAAAATATGCGGAGTCACCTAGTGCAG”, the binding signal was 9030 fluorescence intensity (a.u.).

For the sequence “TTTGTTTCCTCACGTGGTTTCCTTTTTGGCACCGCATTACCGGAGTCACCTAGTGCAG”, the binding signal is 12600 fluorescence intensity (a.u.).

On to “CTGTGTGAGACTGACATGTGGGGCCCACGGGGTTTATTATCGGAGTCACCTAGTGCAG”, for which the binding signal was 8320 fluorescence intensity (a.u.).

As to “GACCGTTCCAGTTAGTTTAACACCTTAACTTCCATTAGCTCGGAGTCACCTAGTGCAG”, the binding signal was 9400 fluorescence intensity (a.u.).

“CATTCAATCCTAGCCATTCATCCACTTTCTTTTTTTTTTTCGGAGTCACCTAGTGCAG”: the binding signal is 8210 fluorescence intensity (a.u.).

For “GCCCCAATTGACCACGTTCGCTGTAGCCGCGCCCCGCGCACGGAGTCACCTAGTGCAG”, the binding signal was 11200 fluorescence intensity (a.u.).

With “GCGCCGCCATCACCACCGCCGCGGCCACCGTCACCCCGGCCGGAGTCACCTAGTGCAG”, the binding signal is 8240 fluorescence intensity (a.u.).

Consider “TCGGATACGAGTTTGATTCTCATCCTCCTTCATTTATATTCGGAGTCACCTAGTGCAG”, for which the binding signal is 8320 fluorescence intensity (a.u.).

As for “AATCTCAGTTCTCATGCCTTGTTTAGTTCCAAACTTTTTCCGGAGTCACCTAGTGCAG”, the binding signal was 10200 fluorescence intensity (a.u.).

Consider “GTTGTCAGTGCGTGGGTGGTGTTTTCTTCATTTTCCTATTCGGAGTCACCTAGTGCAG”, for which the binding signal was 11600 fluorescence intensity (a.u.).

With “TTTACACACTCATCATACATACTATTTGCTCCATTCTGAACGGAGTCACCTAGTGCAG”, the binding signal was 9210 fluorescence intensity (a.u.).

Regarding “TTTTGTGGTTGGTTGTATCGTGATCCTAAGTGTGAAAAAACGGAGTCACCTAGTGCAG”, the binding signal is 8380 fluorescence intensity (a.u.).

With “CTCAAGATTTATGATTTTCTATATGTTTGTCCCTTTTCTTCGGAGTCACCTAGTGCAG”, the binding signal is 10300 fluorescence intensity (a.u.).

As to “CTCTCTCTCTCTCATGCAATGCAAATGCAACCTGTCTTATCGGAGTCACCTAGTGCAG”, the binding signal is 8840 fluorescence intensity (a.u.).

For “CCACCTCCACTTCGCCGCCGGCGCCTCACCACGCGCAGACCGGAGTCACCTAGTGCAG”, the binding signal is 8800 fluorescence intensity (a.u.).

In the case of “TAATAAAGACATCTCCTCTTGGCTCTTTTACTGTTTGATACGGAGTCACCTAGTGCAG”, the binding signal was 10000 fluorescence intensity (a.u.).

On to “ATCCGTCCGTTTCGTTCCGTACGAACCGCCGGCGTTCAAACGGAGTCACCTAGTGCAG”, for which the binding signal was 8580 fluorescence intensity (a.u.).

For the sequence “ATGGGCTGGCCCACGCAACATTCCACCTTGGGCTTCGATTCGGAGTCACCTAGTGCAG”, the binding signal is 8520 fluorescence intensity (a.u.).
